# Measured values reported in PMC7862700.
# Protein sequences, listed by entry. Tags and fused reporters are not part of them. Lines headed by an entry give the natural chain unless they say otherwise; changes in a name come on top.
# UniProt Q00613: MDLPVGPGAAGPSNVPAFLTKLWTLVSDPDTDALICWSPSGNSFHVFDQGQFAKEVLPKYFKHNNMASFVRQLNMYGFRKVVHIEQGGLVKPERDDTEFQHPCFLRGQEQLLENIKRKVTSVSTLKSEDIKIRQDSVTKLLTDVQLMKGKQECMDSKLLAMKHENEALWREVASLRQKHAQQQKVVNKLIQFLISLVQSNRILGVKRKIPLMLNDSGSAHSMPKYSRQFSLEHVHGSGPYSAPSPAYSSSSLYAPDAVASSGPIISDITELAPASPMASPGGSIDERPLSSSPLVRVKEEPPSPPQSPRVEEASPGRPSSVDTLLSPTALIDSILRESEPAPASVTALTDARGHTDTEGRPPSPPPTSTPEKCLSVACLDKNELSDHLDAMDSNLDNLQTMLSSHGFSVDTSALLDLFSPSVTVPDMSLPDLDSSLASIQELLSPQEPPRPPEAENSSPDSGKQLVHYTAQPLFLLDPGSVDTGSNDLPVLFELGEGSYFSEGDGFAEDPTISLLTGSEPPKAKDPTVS
# This is a selection; strong and weak results do not stand in their true shares. For part of these data: At the low end of the ranking the order means little. This is one part of the list. For part of these data: The source does not settle which construct or isoform was used.
# Columns and labels:
# HSF1 = HSF1 (UniProt Q00613); assay: DAPPL (digital affinity profiling via proximity ligation, sequencing); details: 10 mM Tris-HCl pH 7.5, 50 mM NaCl, 1 mM DTT, 4% glycerol, room temperature, 30 min; GST-TFs on glutathione beads, 16-mer random dsDNA library, 0.1% …; high values mean tight binding; double strand, one strand shown; scale: fold enrichment (6-mer frequency, TF over GST control)
# ELF2 = target: T1, ELF2 (UniProt Q15723); assay: as above; details: 10 mM Tris-HCl pH 7.5, 50 mM NaCl, 1 mM DTT, 4% glycerol, room temperature, 30 min; GST-TFs on glutathione beads, 16-mer random dsDNA library, 0.1% …; high values mean tight binding; double strand, one strand shown; scale: fold enrichment (6-mer frequency, TF over GST control)
# T1 sequence: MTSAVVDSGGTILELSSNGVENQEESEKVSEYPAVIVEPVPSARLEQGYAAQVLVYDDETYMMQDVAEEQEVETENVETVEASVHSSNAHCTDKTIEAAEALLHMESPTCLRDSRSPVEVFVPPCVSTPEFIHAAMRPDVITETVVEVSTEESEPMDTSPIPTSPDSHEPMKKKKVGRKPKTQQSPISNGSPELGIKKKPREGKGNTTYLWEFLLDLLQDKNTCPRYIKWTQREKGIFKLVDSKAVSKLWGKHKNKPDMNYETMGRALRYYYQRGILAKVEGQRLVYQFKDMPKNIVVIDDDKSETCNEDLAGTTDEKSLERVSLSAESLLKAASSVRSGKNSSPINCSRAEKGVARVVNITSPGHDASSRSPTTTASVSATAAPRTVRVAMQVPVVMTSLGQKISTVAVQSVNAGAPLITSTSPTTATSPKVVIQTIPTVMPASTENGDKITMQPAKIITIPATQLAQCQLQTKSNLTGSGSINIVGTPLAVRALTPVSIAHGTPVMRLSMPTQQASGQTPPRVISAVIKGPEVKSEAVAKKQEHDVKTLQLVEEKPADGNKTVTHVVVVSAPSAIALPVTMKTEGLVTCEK
sequence,measurement,setting,value
GGCAGT,binding signal,HSF1,0.386
same,binding signal,ELF2,0.522
GATTGA,binding signal,HSF1,0.935
same,binding signal,ELF2,0.934
GGACAA,binding signal,HSF1,0.709
same,binding signal,ELF2,0.809
AGAGTT,binding signal,HSF1,0.821
same,binding signal,ELF2,0.801
GAGGCT,binding signal,HSF1,0.626
same,binding signal,ELF2,0.617
GGTCAT,binding signal,HSF1,0.668
same,binding signal,ELF2,0.824
GCGGGA,binding signal,HSF1,0.389
same,binding signal,ELF2,0.387
AGACGT,binding signal,HSF1,0.486
same,binding signal,ELF2,0.445
TAAGTG,binding signal,HSF1,0.932
same,binding signal,ELF2,0.766
TGAGAC,binding signal,HSF1,0.437
same,binding signal,ELF2,0.479
GAGGGT,binding signal,HSF1,0.519
same,binding signal,ELF2,0.498
ACGTGC,binding signal,HSF1,0.593
same,binding signal,ELF2,0.659
TGTCGG,binding signal,HSF1,0.295
same,binding signal,ELF2,0.337
GTCTGC,binding signal,HSF1,0.69
same,binding signal,ELF2,0.835
GCCGTA,binding signal,HSF1,0.727
same,binding signal,ELF2,0.759
TGACGT,binding signal,HSF1,0.703
same,binding signal,ELF2,0.831
GGTCAG,binding signal,HSF1,0.427
same,binding signal,ELF2,0.529
AGCCGG,binding signal,HSF1,0.423
same,binding signal,ELF2,0.667
GCAAGT,binding signal,HSF1,0.703
same,binding signal,ELF2,0.78
CAACGG,binding signal,HSF1,0.737
same,binding signal,ELF2,0.93
AAGGCG,binding signal,HSF1,0.577
same,binding signal,ELF2,0.7
CGGCGC,binding signal,HSF1,0.531
same,binding signal,ELF2,0.6
CAAGCG,binding signal,HSF1,0.822
same,binding signal,ELF2,0.87
GTGTGT,binding signal,HSF1,0.401
same,binding signal,ELF2,0.505
GTGACA,binding signal,HSF1,0.558
same,binding signal,ELF2,0.778
GCCGTT,binding signal,HSF1,0.704
same,binding signal,ELF2,0.745
GGTACG,binding signal,HSF1,0.698
same,binding signal,ELF2,0.819
GTGTCG,binding signal,HSF1,0.474
same,binding signal,ELF2,0.618
GGAGAG,binding signal,HSF1,0.266
same,binding signal,ELF2,0.265
GAGTAG,binding signal,HSF1,0.463
same,binding signal,ELF2,0.481
ATCGGT,binding signal,HSF1,0.66
same,binding signal,ELF2,0.684
CGGCAG,binding signal,HSF1,0.658
same,binding signal,ELF2,0.812
ACACAG,binding signal,HSF1,0.808
same,binding signal,ELF2,0.951
GAGATG,binding signal,HSF1,0.72
same,binding signal,ELF2,0.642
TAGTGA,binding signal,HSF1,0.647
same,binding signal,ELF2,0.556
GCGTGA,binding signal,HSF1,0.254
same,binding signal,ELF2,0.279
GAGGTG,binding signal,HSF1,0.41
same,binding signal,ELF2,0.491
CGGTGA,binding signal,HSF1,0.385
same,binding signal,ELF2,0.442
CTGTCG,binding signal,HSF1,0.469
same,binding signal,ELF2,0.553
CCAGCG,binding signal,HSF1,0.631
same,binding signal,ELF2,0.598
TGAGAT,binding signal,HSF1,0.805
same,binding signal,ELF2,0.668
CGCATA,binding signal,HSF1,0.656
same,binding signal,ELF2,0.739
GAGGTT,binding signal,HSF1,0.751
same,binding signal,ELF2,0.758
TCAGAA,binding signal,HSF1,1.26
same,binding signal,ELF2,0.892
GGCCCG,binding signal,HSF1,0.603
same,binding signal,ELF2,0.752
GGCCAT,binding signal,HSF1,0.701
same,binding signal,ELF2,0.8
CGCAAG,binding signal,HSF1,0.795
same,binding signal,ELF2,0.79
GTGAGG,binding signal,HSF1,0.223
same,binding signal,ELF2,0.254
TCGGCC,binding signal,HSF1,0.699
same,binding signal,ELF2,0.724
AGAAAG,binding signal,HSF1,1.87
same,binding signal,ELF2,0.806
TCGGGA,binding signal,HSF1,0.651
same,binding signal,ELF2,0.377
CCGTGT,binding signal,HSF1,0.376
same,binding signal,ELF2,0.571
GCACGG,binding signal,HSF1,0.651
same,binding signal,ELF2,0.821
GGTGAT,binding signal,HSF1,0.752
same,binding signal,ELF2,0.755
GAGCCT,binding signal,HSF1,0.804
same,binding signal,ELF2,0.744
GTGAAA,binding signal,HSF1,0.734
same,binding signal,ELF2,0.725
GGAGCA,binding signal,HSF1,0.414
same,binding signal,ELF2,0.443
AGAGTA,binding signal,HSF1,0.799
same,binding signal,ELF2,0.762
CCACGG,binding signal,HSF1,0.805
same,binding signal,ELF2,0.877
GAGATA,binding signal,HSF1,0.82
same,binding signal,ELF2,0.62
CGGTGG,binding signal,HSF1,0.517
same,binding signal,ELF2,0.639
GAGCTA,binding signal,HSF1,0.948
same,binding signal,ELF2,0.839
GGAGCG,binding signal,HSF1,0.322
same,binding signal,ELF2,0.387
GGGCGG,binding signal,HSF1,0.313
same,binding signal,ELF2,0.44
GGGGAT,binding signal,HSF1,0.828
same,binding signal,ELF2,0.632
CGCTGA,binding signal,HSF1,0.708
same,binding signal,ELF2,0.849
TGGGAG,binding signal,HSF1,0.416
same,binding signal,ELF2,0.424
CGGGGA,binding signal,HSF1,0.4
same,binding signal,ELF2,0.413
GGTGCG,binding signal,HSF1,0.483
same,binding signal,ELF2,0.578
CCAGAG,binding signal,HSF1,0.952
same,binding signal,ELF2,0.59
CAGGTC,binding signal,HSF1,0.545
same,binding signal,ELF2,0.654
AGGCAT,binding signal,HSF1,0.773
same,binding signal,ELF2,0.82
ACAGCG,binding signal,HSF1,0.623
same,binding signal,ELF2,0.797
GGCCAA,binding signal,HSF1,0.725
same,binding signal,ELF2,0.779
GGGGAC,binding signal,HSF1,0.372
same,binding signal,ELF2,0.434
GAGGCC,binding signal,HSF1,0.368
same,binding signal,ELF2,0.391
ATGGAG,binding signal,HSF1,0.538
same,binding signal,ELF2,0.555
CAGGTG,binding signal,HSF1,0.474
same,binding signal,ELF2,0.515
GAGTCC,binding signal,HSF1,0.353
same,binding signal,ELF2,0.366
GGGCTG,binding signal,HSF1,0.703
same,binding signal,ELF2,0.868
GATTGT,binding signal,HSF1,0.971
same,binding signal,ELF2,0.778
AAAGTG,binding signal,HSF1,0.896
same,binding signal,ELF2,0.856
CAAGGG,binding signal,HSF1,0.764
same,binding signal,ELF2,0.837
ACCAGG,binding signal,HSF1,0.578
same,binding signal,ELF2,0.866
GGACGA,binding signal,HSF1,0.627
same,binding signal,ELF2,0.605
CGTGAG,binding signal,HSF1,0.137
same,binding signal,ELF2,0.123
GCGCTA,binding signal,HSF1,0.922
same,binding signal,ELF2,0.909
GGCGAC,binding signal,HSF1,0.633
same,binding signal,ELF2,0.703
CATGGA,binding signal,HSF1,0.995
same,binding signal,ELF2,0.811
TGTCGT,binding signal,HSF1,0.694
same,binding signal,ELF2,0.844
GTCATG,binding signal,HSF1,0.63
same,binding signal,ELF2,0.828
GACCAG,binding signal,HSF1,0.64
same,binding signal,ELF2,0.605
CAAGGA,binding signal,HSF1,0.711
same,binding signal,ELF2,0.791
GACCGT,binding signal,HSF1,0.388
same,binding signal,ELF2,0.425
AGTCGT,binding signal,HSF1,0.317
same,binding signal,ELF2,0.366
CCGGAG,binding signal,HSF1,0.427
same,binding signal,ELF2,0.535
AGGCTG,binding signal,HSF1,0.653
same,binding signal,ELF2,0.651
CGCATC,binding signal,HSF1,0.609
same,binding signal,ELF2,0.911
TAGACG,binding signal,HSF1,0.91
same,binding signal,ELF2,0.73
GAGTTC,binding signal,HSF1,0.661
same,binding signal,ELF2,0.771
GGTCGC,binding signal,HSF1,0.606
same,binding signal,ELF2,0.792
AGCAGG,binding signal,HSF1,0.765
same,binding signal,ELF2,0.956
ACAGGC,binding signal,HSF1,0.559
same,binding signal,ELF2,0.642
TAGCCA,binding signal,HSF1,0.864
same,binding signal,ELF2,0.796
GTCTGT,binding signal,HSF1,0.697
same,binding signal,ELF2,0.802
CCGGGG,binding signal,HSF1,0.552
same,binding signal,ELF2,0.848
GTAGGA,binding signal,HSF1,0.519
same,binding signal,ELF2,0.669
TGGAGC,binding signal,HSF1,0.561
same,binding signal,ELF2,0.597
GGTTCG,binding signal,HSF1,0.856
same,binding signal,ELF2,0.808
CGTGCC,binding signal,HSF1,0.651
same,binding signal,ELF2,0.801
CGTGAC,binding signal,HSF1,0.433
same,binding signal,ELF2,0.539
ATCGTA,binding signal,HSF1,0.908
same,binding signal,ELF2,0.814
GGAGGT,binding signal,HSF1,0.292
same,binding signal,ELF2,0.346
GGTGAA,binding signal,HSF1,0.694
same,binding signal,ELF2,0.736
ACTGAG,binding signal,HSF1,0.734
same,binding signal,ELF2,0.737
GAACGA,binding signal,HSF1,0.953
same,binding signal,ELF2,0.727
GCACAG,binding signal,HSF1,0.593
same,binding signal,ELF2,0.679
GCATAG,binding signal,HSF1,0.773
same,binding signal,ELF2,0.813
AGTTCA,binding signal,HSF1,0.801
same,binding signal,ELF2,0.927
CGGGCG,binding signal,HSF1,0.335
same,binding signal,ELF2,0.433

# Random excerpt: five entries already listed, in no set order.
sequence,measurement,setting,value
CGTGAC,binding signal,ELF2,0.539
CAAGGA,binding signal,HSF1,0.711
GGGGAT,binding signal,HSF1,0.828
GTGTGT,binding signal,ELF2,0.505
GGCGAC,binding signal,ELF2,0.703

# At a glance, some entries already given.
sequence,measurement,setting,value
GGGCGG,binding signal,ELF2,0.44
GGGGAT,binding signal,HSF1,0.828
same,binding signal,ELF2,0.632

# 4 entries from above in another layout.
sequence | measurement | setting | value
GTCTGT | binding signal | HSF1 | 0.697
same | binding signal | ELF2 | 0.802
CCGGGG | binding signal | HSF1 | 0.552
same | binding signal | ELF2 | 0.848
